Results published in patent publication US20260234201A1.
No constants are given. Whether binding was seen depends on the method and setting. Some entries that bind do so weakly or less than the wild type.

B1: DARPin02 (non DTPA-coupled) (designed binder)
chain: DLGKKLLEAARAGQDDEVRELLKAGADVNAKDEYGLTPLYLATAHGHLEIVEVLLKAGADVNAVDAIGFTPLHLAAFIGHLEIAEVLLKAGADVNAQDKFGKTPADIAAGAGNEDIAEVLQKAA
B2: DARPin03 (non DTPA-coupled) (designed binder)
chain: DLGIKLLFAAAKGQDDEVRELLKAGADVNAKDFQGVTPLHIAAQSGHLEIVEVLLKAGADVNAKDVTGDTPLHLAAQHGHLEIVEVLLKAGADVNAQDERGWTPADLAADWGHEDIAEVLQKAA
B3: GS-DARPin02-GSGSC-DTPA (designed binder)
chain: GSDLGKKLLEAARAGQDDEVRELLKAGADVNAKDEYGLTPLYLATAHGHLEIVEVLLKAGADVNAVDAIGFTPLHLAAFIGHLEIAEVLLKAGADVNAQDKFGKTPADIAAGAGNEDIAEVLQKAAGSGSC
modifications: maleimide-DTPA coupled to the C-terminal Cys of the GSGSC tag
B4: GS-DARPin03-GSGSC-DTPA (designed binder)
chain: GSDLGIKLLFAAAKGQDDEVRELLKAGADVNAKDFQGVTPLHIAAQSGHLEIVEVLLKAGADVNAKDVTGDTPLHLAAQHGHLEIVEVLLKAGADVNAQDERGWTPADLAADWGHEDIAEVLQKAAGSGSC
modifications: maleimide-DTPA coupled to the C-terminal Cys of the GSGSC tag

Each binder was assayed against biotinylated full-length human epidermal growth factor receptor 2 (HER2) (human) (UniProt P04626) (assay: SPR single trace, 500 nM analyte on chip coated with biotinylated HER2).
In the case of B1, the binding is reported as “binds”.
For B2, the binding was “binds”.
With B3 the binding was “binds”.
For B4, the binding was “binds”.

The binders below were run against biotinylated full-length human epidermal growth factor receptor 2 (HER2) (human) (UniProt P04626) (assay: SPR single trace, 500 nM analyte on biotinylated full-length human HER2).
For B1, the binding was “binds”.
With B2 the binding was “binds”.
